Measured values as given in patent publication US20240400614A1 (Bright Peak Therapeutics AG, priority 2023, published 2024).

Test: general procedure: Fmoc solid-phase peptide synthesis; Rink-amide MBHA resin (0.57 mmol/g); HCTU/NMM
Details: whole synthesis; for final HPLC purity: UV detection at 220 and 254

| Substance | isolated yield [%] | final HPLC purity [%] |
| --- | --- | --- |
| GSSVYSGR (N-terminal Abz, C-terminal Tyr(3-NO2) FRET pair) | 25.2 | 90.2 |
| GSSYYSGA (N-terminal Abz, C-terminal Tyr(3-NO2) FRET pair) | 33.1 | 95.7 |
| HSSKLQYFGKL (N-terminal Abz, C-terminal Tyr(3-NO2) FRET pair) | 5.6 | 90.9 |
| ISQYSSAT (N-terminal Abz, C-terminal Tyr(3-NO2) FRET pair) | 5.6 | 94.8 |
| KWGKSAPLGLAG (N-terminal Abz, C-terminal Tyr(3-NO2) FRET pair) | 19.5 | 92.2 |
| RGRKPQPLVD (N-terminal Abz, C-terminal Tyr(3-NO2) FRET pair) | 14.4 | 86.9 |
| RGRKPY-Nle-LQG | 25.1 | 89.8 |
| RGRKPYMLQG (N-terminal Abz, C-terminal Tyr(3-NO2) FRET pair) | 8.1 | 77 |
| RGRKSPANLVG (N-terminal Abz, C-terminal Tyr(3-NO2) FRET pair) | 31.9 | 90.6 |
| RGRKSPQPLVD (N-terminal Abz, C-terminal Tyr(3-NO2) FRET pair) | 16.0 | 90.7 |
| RGRKSPY-Nle-LQG | 28.6 | 71.8 |
| RGRKSPYMLQG (N-terminal Abz, C-terminal Tyr(3-NO2) FRET pair) | 5.6 | 89.8 |
| RGRKSQPLVD (N-terminal Abz, C-terminal Tyr(3-NO2) FRET pair) | 20.5 | 85.1 |
| RGRKVANLVG (N-terminal Abz, C-terminal Tyr(3-NO2) FRET pair) | 6.7 | 94.5 |
| RGRRAANLVRPLGYFGKL (N-terminal Abz, C-terminal Tyr(3-NO2) FRET pair) | 8.1 | 95.4 |
| RGRRHSSKLQPLGYFGKL (N-terminal Abz, C-terminal Tyr(3-NO2) FRET pair) | 16.2 | 98.3 |
| RGRRPLGLAGGSG (N-terminal Abz, C-terminal Tyr(3-NO2) FRET pair) | 17.1 | 90.3 |
| RGRRVANLVG (N-terminal Abz, C-terminal Tyr(3-NO2) FRET pair) | 28.4 | 91.3 |
| RGRRVANPLGLAGSG (N-terminal Abz, C-terminal Tyr(3-NO2) FRET pair) | 16.2 | 91.6 |
| RGRRVANPLGYFGKL (N-terminal Abz, C-terminal Tyr(3-NO2) FRET pair) | 16.7 | 96.8 |
| RQRKVANLVG (N-terminal Abz, C-terminal Tyr(3-NO2) FRET pair) | 24.5 | 90.4 |
| RQRRS-Nle-PLGLAG | 25.3 | 90.2 |
| RQRRSAAPLGLAG (N-terminal Abz, C-terminal Tyr(3-NO2) FRET pair) | 26.4 | 89.4 |
| RQRRSPLGLAG (N-terminal Abz; C-terminal Tyr(3-NO2)) | 17.6 | 97.2 |
| RQRRSVVGG (N-terminal Abz, C-terminal Tyr(3-NO2) FRET pair) | 10.4 | 80.1 |
| RYGKSAPLGLAG (N-terminal Abz, C-terminal Tyr(3-NO2) FRET pair) | 33.8 | 90.4 |
| SGRHSSKLQPLGYFGKL (N-terminal Abz, C-terminal Tyr(3-NO2) FRET pair) | 20 | 97.8 |

| Substance | isolated yield [%] | final HPLC purity [%] |
| --- | --- | --- |
| SGRPLGYFGKL (N-terminal Abz, C-terminal Tyr(3-NO2) FRET pair) | 8.5 | 95.4 |
| SGRVAGLVG (N-terminal Abz; C-terminal Tyr(3-NO2)) | 32.4 | 91.2 |
| SGRVANPLGGSG (N-terminal Abz, C-terminal Tyr(3-NO2) FRET pair) | 20.3 | 89.8 |
| SGRVAPQPLVD (N-terminal Abz, C-terminal Tyr(3-NO2) FRET pair) | 17.4 | 90.9 |
| SGRVAPY-Nle-LQG | 24.6 | 92 |
| SGRVAPYMLQG (N-terminal Abz, C-terminal Tyr(3-NO2) FRET pair) | 3.5 | 79.5 |
| SGRVLGPLNLSG (N-terminal Abz; C-terminal Tyr(3-NO2)) | 16.6 | 98.0 |
| SGRVLPAGLVG (N-terminal Abz; C-terminal Tyr(3-NO2)) | 28.4 | 98.0 |
| SGRVLPANLVG (N-terminal Abz; C-terminal Tyr(3-NO2)) | 25.9 | 90.6 |
| SGRVLPYAMTA (N-terminal Abz, C-terminal Tyr(3-NO2) FRET pair) | 44.8 | 94.3 |
| SGRVLRKAGPAGLVG (N-terminal Abz; C-terminal Tyr(3-NO2)) | 17.2 | 90.5 |
| SGRVLRKAGPQPLVD (N-terminal Abz; C-terminal Tyr(3-NO2)) | 22.1 | 95.2 |
| SGRVLTLRKAALPLAM (N-terminal Abz; C-terminal Tyr(3-NO2)) | 7.6 | 91.5 |
| SGRVLTLRKAPWGLLE (N-terminal Abz; C-terminal Tyr(3-NO2)) | 20.3 | 95.5 |
| SGRVQPLVD (N-terminal Abz, C-terminal Tyr(3-NO2) FRET pair) | 21.8 | 93 |
| SGRVY-Nle-LQG | 16.3 | 90.3 |
| SGRVYMLQG (N-terminal Abz, C-terminal Tyr(3-NO2) FRET pair) | 13.8 | 80.4 |
| SPLGLAGS (N-terminal Abz, C-terminal Tyr(3-NO2) FRET pair) | 25.6 | 93.3 |
| SQLYSSPG (N-terminal Abz, C-terminal Tyr(3-NO2) FRET pair) | 15.2 | 96.3 |
| SSLQSSPG (N-terminal Abz, C-terminal Tyr(3-NO2) FRET pair) | 12.8 | 92.6 |
| SSLYSSPG (N-terminal Abz, C-terminal Tyr(3-NO2) FRET pair) | 16.6 | 93.5 |
| SSQYSSPG (N-terminal Abz, C-terminal Tyr(3-NO2) FRET pair) | 9.4 | 89.2 |
| SSRAVFRKNLGPLGLAG (N-terminal Abz; C-terminal Tyr(3-NO2)) | 35.6 | 90.9 |
| SSRGPASNRRLPLGLAG (N-terminal Abz; C-terminal Tyr(3-NO2)) | 22.6 | 98.5 |
| SSRGRRGPYMLQG (N-terminal Abz; C-terminal Tyr(3-NO2)) | 16.8 | 94.8 |
| SSRVFRKPANLAG (N-terminal Abz; C-terminal Tyr(3-NO2)) | 14.6 | 95.5 |

Plain letter strings leave the end groups untold.
